# Results as given in the supplement of paper PMC12823440, “Inhibitors supercharge kinase turnover through native proteolytic circuits” (Nature, 2025).
# Amino acid sequences for entries named in this document (tags omitted). A change or cut given only in a name is not applied to a line headed by its entry.
# UniProt Q9UQM7, whole entry: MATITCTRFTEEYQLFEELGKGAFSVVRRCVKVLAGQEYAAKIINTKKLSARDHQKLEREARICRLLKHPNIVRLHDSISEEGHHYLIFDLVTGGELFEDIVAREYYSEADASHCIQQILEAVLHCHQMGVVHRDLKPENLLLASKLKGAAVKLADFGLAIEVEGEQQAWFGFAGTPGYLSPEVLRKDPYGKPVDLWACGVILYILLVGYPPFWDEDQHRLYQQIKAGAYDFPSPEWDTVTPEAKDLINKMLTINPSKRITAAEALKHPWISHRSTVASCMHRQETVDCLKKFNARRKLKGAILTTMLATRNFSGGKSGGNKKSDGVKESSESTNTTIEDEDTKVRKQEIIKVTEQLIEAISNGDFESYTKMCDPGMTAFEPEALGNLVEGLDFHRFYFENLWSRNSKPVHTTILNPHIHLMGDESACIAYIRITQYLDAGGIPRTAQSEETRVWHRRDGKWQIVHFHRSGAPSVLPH
# UniProt Q13555: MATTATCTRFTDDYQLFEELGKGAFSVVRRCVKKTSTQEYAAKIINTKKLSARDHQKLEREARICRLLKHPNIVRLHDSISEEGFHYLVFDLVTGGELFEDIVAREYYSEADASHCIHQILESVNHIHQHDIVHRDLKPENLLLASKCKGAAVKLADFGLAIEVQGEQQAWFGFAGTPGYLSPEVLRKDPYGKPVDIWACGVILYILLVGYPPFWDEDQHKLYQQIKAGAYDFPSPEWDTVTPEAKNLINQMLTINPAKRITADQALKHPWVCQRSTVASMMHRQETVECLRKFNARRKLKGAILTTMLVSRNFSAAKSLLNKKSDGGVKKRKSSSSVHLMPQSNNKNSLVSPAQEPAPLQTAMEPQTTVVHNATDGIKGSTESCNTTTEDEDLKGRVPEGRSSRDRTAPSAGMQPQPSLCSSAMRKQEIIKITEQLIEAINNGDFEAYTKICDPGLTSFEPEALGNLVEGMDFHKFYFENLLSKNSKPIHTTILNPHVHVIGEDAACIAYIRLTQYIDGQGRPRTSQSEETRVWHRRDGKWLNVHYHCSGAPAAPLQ
# UniProt Q15131: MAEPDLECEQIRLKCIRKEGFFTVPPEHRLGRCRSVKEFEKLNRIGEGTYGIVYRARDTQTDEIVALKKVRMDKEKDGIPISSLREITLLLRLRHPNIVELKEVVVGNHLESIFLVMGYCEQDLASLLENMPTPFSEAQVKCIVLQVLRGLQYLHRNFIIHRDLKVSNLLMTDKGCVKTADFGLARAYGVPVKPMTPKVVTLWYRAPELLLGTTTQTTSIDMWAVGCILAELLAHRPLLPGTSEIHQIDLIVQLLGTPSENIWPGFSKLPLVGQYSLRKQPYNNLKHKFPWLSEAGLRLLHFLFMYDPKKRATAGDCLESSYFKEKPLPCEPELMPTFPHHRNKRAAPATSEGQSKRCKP
# UniProt Q00526: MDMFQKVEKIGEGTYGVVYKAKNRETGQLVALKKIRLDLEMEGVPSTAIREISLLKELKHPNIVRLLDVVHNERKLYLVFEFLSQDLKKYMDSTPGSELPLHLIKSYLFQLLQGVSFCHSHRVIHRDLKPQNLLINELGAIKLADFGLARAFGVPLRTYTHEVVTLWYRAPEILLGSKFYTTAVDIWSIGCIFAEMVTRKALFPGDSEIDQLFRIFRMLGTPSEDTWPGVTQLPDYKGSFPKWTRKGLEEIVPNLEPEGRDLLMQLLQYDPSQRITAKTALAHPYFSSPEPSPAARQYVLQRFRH
# UniProt Q00535, whole entry, looked up: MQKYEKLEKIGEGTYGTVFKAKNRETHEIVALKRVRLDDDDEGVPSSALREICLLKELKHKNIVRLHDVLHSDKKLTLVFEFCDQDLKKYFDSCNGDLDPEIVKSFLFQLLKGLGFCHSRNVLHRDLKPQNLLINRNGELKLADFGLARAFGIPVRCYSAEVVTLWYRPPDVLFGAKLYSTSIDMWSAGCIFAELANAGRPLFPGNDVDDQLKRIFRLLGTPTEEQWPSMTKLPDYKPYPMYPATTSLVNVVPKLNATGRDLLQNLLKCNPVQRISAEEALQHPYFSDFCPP
# UniProt O96017, whole entry: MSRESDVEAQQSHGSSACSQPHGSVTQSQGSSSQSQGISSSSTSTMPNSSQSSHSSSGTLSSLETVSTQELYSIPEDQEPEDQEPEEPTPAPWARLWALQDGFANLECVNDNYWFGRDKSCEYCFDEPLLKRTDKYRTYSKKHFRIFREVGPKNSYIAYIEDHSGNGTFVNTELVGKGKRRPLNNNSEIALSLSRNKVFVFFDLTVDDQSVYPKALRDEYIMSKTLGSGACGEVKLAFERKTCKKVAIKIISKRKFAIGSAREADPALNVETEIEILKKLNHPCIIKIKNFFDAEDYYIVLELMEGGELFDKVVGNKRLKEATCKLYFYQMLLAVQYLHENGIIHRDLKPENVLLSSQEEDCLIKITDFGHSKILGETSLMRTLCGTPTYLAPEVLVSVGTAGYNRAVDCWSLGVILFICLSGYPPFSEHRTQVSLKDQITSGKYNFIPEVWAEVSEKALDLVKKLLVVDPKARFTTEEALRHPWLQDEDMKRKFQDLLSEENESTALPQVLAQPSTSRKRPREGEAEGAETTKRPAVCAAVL
# UniProt P07333, whole entry: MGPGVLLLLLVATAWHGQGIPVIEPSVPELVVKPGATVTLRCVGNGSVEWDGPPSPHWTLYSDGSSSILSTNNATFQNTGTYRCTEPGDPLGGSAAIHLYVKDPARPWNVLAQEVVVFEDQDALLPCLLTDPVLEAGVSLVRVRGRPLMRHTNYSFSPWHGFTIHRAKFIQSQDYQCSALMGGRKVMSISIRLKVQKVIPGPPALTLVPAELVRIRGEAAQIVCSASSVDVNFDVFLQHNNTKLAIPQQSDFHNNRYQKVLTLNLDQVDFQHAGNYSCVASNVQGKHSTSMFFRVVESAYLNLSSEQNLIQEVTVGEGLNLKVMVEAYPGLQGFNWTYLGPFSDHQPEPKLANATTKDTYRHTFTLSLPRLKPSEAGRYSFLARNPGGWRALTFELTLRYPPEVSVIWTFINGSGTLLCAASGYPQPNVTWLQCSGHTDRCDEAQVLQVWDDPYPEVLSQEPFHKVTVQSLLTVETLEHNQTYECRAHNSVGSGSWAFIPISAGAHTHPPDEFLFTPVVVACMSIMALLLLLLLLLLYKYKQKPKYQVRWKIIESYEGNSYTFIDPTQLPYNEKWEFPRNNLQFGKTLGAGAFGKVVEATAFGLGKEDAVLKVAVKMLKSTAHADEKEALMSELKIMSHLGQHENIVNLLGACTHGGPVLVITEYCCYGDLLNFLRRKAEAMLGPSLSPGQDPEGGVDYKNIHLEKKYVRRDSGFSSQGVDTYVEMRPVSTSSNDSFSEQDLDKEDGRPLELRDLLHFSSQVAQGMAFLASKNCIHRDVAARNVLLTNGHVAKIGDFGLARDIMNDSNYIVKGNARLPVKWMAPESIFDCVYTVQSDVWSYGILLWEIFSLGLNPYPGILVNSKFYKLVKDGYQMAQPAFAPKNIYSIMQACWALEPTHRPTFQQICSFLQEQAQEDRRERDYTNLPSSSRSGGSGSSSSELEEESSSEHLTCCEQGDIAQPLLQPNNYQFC
# UniProt P41240: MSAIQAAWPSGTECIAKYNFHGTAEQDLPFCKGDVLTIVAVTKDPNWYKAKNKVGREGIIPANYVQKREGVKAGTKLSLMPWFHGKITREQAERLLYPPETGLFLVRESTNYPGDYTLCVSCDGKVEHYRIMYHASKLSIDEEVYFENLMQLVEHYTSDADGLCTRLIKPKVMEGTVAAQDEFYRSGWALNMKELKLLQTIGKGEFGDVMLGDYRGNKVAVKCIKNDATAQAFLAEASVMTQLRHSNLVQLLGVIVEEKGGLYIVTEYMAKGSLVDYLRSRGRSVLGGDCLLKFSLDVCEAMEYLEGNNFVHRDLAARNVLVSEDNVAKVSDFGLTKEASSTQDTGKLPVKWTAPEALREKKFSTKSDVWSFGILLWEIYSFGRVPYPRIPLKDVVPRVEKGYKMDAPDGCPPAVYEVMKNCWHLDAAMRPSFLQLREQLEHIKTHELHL
# UniProt P48729: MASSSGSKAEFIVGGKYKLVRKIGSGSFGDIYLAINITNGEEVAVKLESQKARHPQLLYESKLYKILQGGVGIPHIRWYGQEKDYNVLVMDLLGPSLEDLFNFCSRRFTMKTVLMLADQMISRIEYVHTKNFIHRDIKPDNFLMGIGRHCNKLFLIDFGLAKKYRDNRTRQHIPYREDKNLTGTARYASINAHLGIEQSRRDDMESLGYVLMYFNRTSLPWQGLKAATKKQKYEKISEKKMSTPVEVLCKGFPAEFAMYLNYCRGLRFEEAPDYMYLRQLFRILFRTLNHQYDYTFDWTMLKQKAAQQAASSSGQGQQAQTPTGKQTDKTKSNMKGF
# UniProt Q08345: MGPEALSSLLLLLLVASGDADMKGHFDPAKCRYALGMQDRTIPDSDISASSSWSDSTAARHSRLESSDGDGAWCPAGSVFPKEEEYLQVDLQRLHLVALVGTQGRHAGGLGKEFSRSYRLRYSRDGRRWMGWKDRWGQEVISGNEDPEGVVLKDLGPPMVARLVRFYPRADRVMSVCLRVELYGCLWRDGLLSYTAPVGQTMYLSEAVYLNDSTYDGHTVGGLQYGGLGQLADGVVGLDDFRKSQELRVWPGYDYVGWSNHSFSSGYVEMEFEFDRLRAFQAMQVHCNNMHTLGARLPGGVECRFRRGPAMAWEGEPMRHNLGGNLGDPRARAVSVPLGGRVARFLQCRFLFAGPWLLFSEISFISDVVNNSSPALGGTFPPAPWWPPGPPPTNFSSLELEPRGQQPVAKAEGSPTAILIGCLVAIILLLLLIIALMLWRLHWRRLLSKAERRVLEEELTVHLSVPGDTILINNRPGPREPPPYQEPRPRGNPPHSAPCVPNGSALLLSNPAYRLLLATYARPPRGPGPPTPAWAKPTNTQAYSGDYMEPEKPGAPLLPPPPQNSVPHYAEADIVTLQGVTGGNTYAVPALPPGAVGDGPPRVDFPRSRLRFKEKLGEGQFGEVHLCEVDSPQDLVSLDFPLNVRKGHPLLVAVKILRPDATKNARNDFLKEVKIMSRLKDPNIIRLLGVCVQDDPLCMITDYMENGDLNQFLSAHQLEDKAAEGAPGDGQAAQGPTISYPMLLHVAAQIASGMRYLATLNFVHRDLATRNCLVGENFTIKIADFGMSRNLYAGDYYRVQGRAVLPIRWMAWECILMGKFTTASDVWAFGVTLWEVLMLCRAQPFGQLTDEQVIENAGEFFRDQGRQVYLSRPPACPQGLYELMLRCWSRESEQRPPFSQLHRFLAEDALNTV
# UniProt Q9Y463, whole entry, looked up: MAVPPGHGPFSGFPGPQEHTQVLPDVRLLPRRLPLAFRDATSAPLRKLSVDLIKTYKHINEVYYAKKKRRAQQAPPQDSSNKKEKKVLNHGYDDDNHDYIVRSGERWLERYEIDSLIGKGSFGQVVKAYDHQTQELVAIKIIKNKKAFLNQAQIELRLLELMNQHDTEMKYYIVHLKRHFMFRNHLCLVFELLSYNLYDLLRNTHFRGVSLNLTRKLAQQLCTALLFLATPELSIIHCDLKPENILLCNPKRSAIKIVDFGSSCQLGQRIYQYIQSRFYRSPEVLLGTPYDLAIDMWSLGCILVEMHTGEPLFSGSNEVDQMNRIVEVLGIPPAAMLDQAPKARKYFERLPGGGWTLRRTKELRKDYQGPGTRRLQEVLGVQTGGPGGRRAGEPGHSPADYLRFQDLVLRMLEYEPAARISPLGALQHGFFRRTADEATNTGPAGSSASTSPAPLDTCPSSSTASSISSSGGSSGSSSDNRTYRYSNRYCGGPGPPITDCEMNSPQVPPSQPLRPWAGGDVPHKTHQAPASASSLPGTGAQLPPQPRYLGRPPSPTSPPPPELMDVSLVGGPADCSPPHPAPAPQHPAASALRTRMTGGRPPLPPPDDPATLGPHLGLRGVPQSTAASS
# UniProt Q92630: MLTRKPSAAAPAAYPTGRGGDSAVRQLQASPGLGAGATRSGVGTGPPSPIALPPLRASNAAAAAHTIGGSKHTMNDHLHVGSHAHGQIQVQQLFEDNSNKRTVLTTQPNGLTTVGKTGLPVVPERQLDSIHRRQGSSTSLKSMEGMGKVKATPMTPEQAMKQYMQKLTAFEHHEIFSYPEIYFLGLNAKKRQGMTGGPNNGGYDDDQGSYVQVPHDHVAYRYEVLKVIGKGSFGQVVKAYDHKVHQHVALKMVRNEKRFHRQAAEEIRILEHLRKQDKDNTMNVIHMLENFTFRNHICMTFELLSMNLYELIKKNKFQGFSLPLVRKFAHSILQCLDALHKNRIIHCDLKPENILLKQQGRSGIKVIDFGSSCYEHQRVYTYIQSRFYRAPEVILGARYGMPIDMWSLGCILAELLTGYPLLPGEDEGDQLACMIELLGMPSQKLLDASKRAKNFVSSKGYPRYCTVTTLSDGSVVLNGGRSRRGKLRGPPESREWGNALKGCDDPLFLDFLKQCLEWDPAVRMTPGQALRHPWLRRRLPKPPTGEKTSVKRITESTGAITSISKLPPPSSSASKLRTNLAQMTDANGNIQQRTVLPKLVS
# The other results are listed elsewhere or left out. Hit calls seldom repeat between salt and free forms of one compound.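 Kinases were expressed as nanoluciferase fusions in K562 cells and luminescence was read every 4 h between 2 and 18 h as percent of control, DMSO set to 100% and a positive control to 0%. A time point counts as decreased when the signal drops significantly (2 sigma). The hit call is the authors' own, does not follow from the count of time points alone, and its rule is not shown.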
# Key:
# Test in all cases: number of time points (of 5) at which kinase-Nluc abundance scored as decreased, DMSO-normalised (count); higher = more persistent destabilization
# Conditions in all cases: K562; 2-18 h
# CAMK2A = CAMK2A (UniProt Q9UQM7)
# CAMK2G = CAMK2G (UniProt Q13555)
# CDK10 = CDK10 (UniProt Q15131)
# CDK2 = CDK2 (UniProt P24941)
# CDK3 = CDK3 (UniProt Q00526)
# CDK5 = CDK5 (UniProt Q00535)
# CDK6 = CDK6 (UniProt Q00534)
# CHEK2 = CHEK2 (UniProt O96017)
# CSF1R = CSF1R (UniProt P07333)
# CSK = CSK (UniProt P41240)
# CSNK1A1 = CSNK1A1 (UniProt P48729)
# CSNK1D = CSNK1D (UniProt P48730)
# DDR1 = DDR1 (UniProt Q08345)
# DYRK1B = DYRK1B (UniProt Q9Y463)
# DYRK2 = DYRK2 (UniProt Q92630)
# EGFR = EGFR (UniProt P00533)
# EGFR_G719S = EGFR_G719S (UniProt P00533)
# EGFR_G719S_T790M = EGFR_G719S_T790M (UniProt P00533)
# EGFR_L718V = EGFR_L718V (UniProt P00533)
# EGFR_L858R = EGFR_L858R (UniProt P00533)
Compound,number of time points (CAMK2A),number of time points (CAMK2G),number of time points (CDK10),number of time points (CDK2),number of time points (CDK3),number of time points (CDK5),number of time points (CDK6),number of time points (CHEK2),number of time points (CSF1R),number of time points (CSK),number of time points (CSNK1A1),number of time points (CSNK1D),number of time points (DDR1),number of time points (DYRK1B),number of time points (DYRK2),number of time points (EGFR),number of time points (EGFR_G719S),number of time points (EGFR_G719S_T790M),number of time points (EGFR_L718V),number of time points (EGFR_L858R)
O=C1NC(=O)C(c2cn(-c3ccccc3)nc2-c2ccc(F)cc2)N1 (stereo not given) (10 µM),0,0,0,0,0,0,0,0,0,0,0,0,0,0,0,0,0,0,0,0
Nc1[nH]c(=O)nc2c1ncn2[C@@H]1O[C@H](CO)[C@@H](O)[C@H]1O [Crotonoside] (10 µM),0,0,0,0,0,0,0,0,0,0,0,0,0,0,0,0,0,0,0,0
CN1CCN(CCCNc2ncc(Cl)c(-c3cc4c(C(=O)NC5CC5)cccc4s3)n2)CC1 (10 µM),0,0,0,0,0,0,0,0,0,0,0,0,0,0,0,0,0,0,0,0
O=C1NC(=O)/C(=C/c2ccc(-c3ccc(F)cc3O)o2)S1 (10 µM),0,0,0,0,0,0,0,0,0,0,0,0,0,0,0,0,0,0,0,0
C[C@@H]1O[C@@H](OC[C@H]2O[C@@H](Oc3cc(O)c4c(c3)O[C@H](c3ccc(O)cc3)CC4=O)[C@H](O)[C@@H](O)[C@@H]2O)[C@H](O)[C@H](O)[C@H]1O [Narirutin] (10 µM),0,0,0,0,0,0,0,0,0,0,0,0,0,0,0,0,0,0,0,0
c1ccc(-c2nn3c(c2-c2ccnc4cc(OCCN5CCOCC5)ccc24)CCC3)nc1 (10 µM),0,0,0,0,0,0,0,0,0,0,0,0,0,0,0,0,0,0,0,0
COc1cc(-c2cc(-c3cc(OC)c(OC)c(OC)c3)cc(C(F)P(=O)(OCOC(=O)C(C)(C)C)OCOC(=O)C(C)(C)C)c2)cc(OC)c1OC (stereo not given) [Stafia-1-dipivaloyloxymethyl ester] (2.5 µM),0,0,0,0,0,0,0,0,0,0,0,0,0,0,0,0,0,0,0,0
COc1ccc(-n2c(C)c([N+](=O)[O-])c3ccc(O)cc32)cc1 (10 µM),0,0,0,0,0,0,0,0,0,0,0,0,0,0,0,0,0,0,0,0
O=[N+]([O-])c1ccc(Sc2cccc[n+]2[O-])c2nonc12 (2.5 µM),0,0,0,0,0,0,0,0,0,0,0,0,0,0,0,0,0,0,0,0
Cc1cc(Nc2cc(CN3CCOCC3)c3nc(C)c(Cc4ccc(Cl)cc4F)n3n2)n[nH]1 [Gandotinib] (2.5 µM),0,0,0,0,0,0,0,0,0,0,0,0,0,0,0,0,0,0,0,0
COc1ccc(CN2C3CC2CN(c2ccc(-c4cc(OCC(C)(C)O)cn5ncc(C#N)c45)cn2)C3)cn1 [Selpercatinib] (10 µM),0,0,0,0,0,0,2,0,0,0,0,0,0,0,0,0,0,0,0,0
O[C@H]1CC[C@H](Nc2ncc3nc(Nc4c(F)cc(F)cc4F)n([C@H]4CCOC4)c3n2)CC1 [Tanzisertib] (10 µM),0,0,0,0,0,0,0,0,0,0,0,0,0,0,0,0,0,0,0,0
COc1cc(N2CCC(N(C)C)CC2)ccc1Nc1ncc(Cl)c(Nc2ccccc2P(C)(C)=O)n1 (2.5 µM),0,0,0,0,0,0,0,0,0,0,0,0,3,0,0,0,0,0,0,0
Nc1cc(C(F)F)c(-c2nc(N3C4CCC3COC4)nc(N3C4CCC3COC4)n2)cn1 (2.5 µM),0,0,0,0,0,0,0,0,0,0,4,0,0,0,0,0,3,0,0,0
O=c1ccoc2cc(O)ccc12 [7-Hydroxy-4H-chromen-4-one] (10 µM),0,0,0,0,0,0,0,0,0,0,0,0,0,0,0,0,0,0,0,0
O=C(Nc1ccc(Cl)cc1)C1CCCN(C(=O)c2cccc(-c3ccco3)c2)C1 (stereo not given) (2.5 µM),0,0,0,0,0,0,0,0,0,0,0,0,0,0,0,0,0,0,0,0
CC[C@@H]1[C@H](F)C(=O)N[C@@H]1COc1nccc2cc(C(N)=O)c(OC)cc12 (10 µM),0,0,0,0,0,0,0,0,0,0,0,0,0,0,0,0,0,0,0,0

Compound,number of time points (CAMK2A),number of time points (CAMK2G),number of time points (CDK10),number of time points (CDK2),number of time points (CDK3),number of time points (CDK5),number of time points (CDK6),number of time points (CHEK2),number of time points (CSF1R),number of time points (CSK),number of time points (CSNK1A1),number of time points (CSNK1D),number of time points (DDR1),number of time points (DYRK1B),number of time points (DYRK2),number of time points (EGFR),number of time points (EGFR_G719S),number of time points (EGFR_G719S_T790M),number of time points (EGFR_L718V),number of time points (EGFR_L858R)
COc1nc(-c2cccc3c2OCCO3)ccc1Nc1ccc(CN(C)C)cc1 [RAS inhibitor Abd-7] (10 µM),0,0,0,0,0,0,0,0,0,0,0,0,0,0,0,0,0,0,0,0
O=c1nc(N2CCOCC2)oc2c(-c3cccc4c3sc3ccccc34)cccc12 (10 µM),0,0,0,0,0,0,0,0,0,0,0,0,0,0,0,0,0,0,0,0
CCOC(=O)c1c2c3c(cccc3[nH]c1=O)C(=O)c1ccccc1-2 (10 µM),0,0,0,0,0,0,0,0,0,0,0,0,0,0,0,0,0,0,0,0
COc1ccc2c(=O)c(-c3ccccc3)coc2c1 [7-Methoxyisoflavone] (10 µM),0,0,0,0,0,0,0,0,1,0,0,0,0,0,0,0,0,0,0,0
O=c1[nH]ccc2cc(OC3CCNCC3)ccc12 (10 µM),0,0,0,0,0,0,0,0,0,0,0,0,0,0,0,0,0,0,0,0
CN(C)c1ncnc2nc[nH]c12 [6-(Dimethylamino)purine] (10 µM),0,0,0,0,0,0,0,0,0,0,0,0,0,0,0,0,0,0,0,0
CC[C@@H](N)CNc1ccnc(-c2cc(-c3cnn(C)c3)ccc2O)n1 (2.5 µM),0,0,0,0,0,0,0,0,0,0,0,0,0,0,1,0,0,0,0,0
C=CS(=O)(=O)c1ccc(Nc2nc(OCC3CCCCC3)c3[nH]cnc3n2)cc1 (2.5 µM),0,0,0,0,0,0,0,3,0,0,0,0,0,0,0,0,0,0,0,0
Nc1cccc(S(=O)(=O)N2CCCN(S(=O)(=O)c3ccc4c(c3)OCCO4)CC2)c1 (10 µM),0,0,0,0,0,0,0,0,0,0,0,0,0,0,0,0,0,0,0,0
O=C(CO)N1CCC(c2n[nH]c(-c3ccc(Cl)cc3)c2-c2ccncn2)CC1 (10 µM),0,0,0,0,0,0,0,0,0,0,0,0,0,0,0,0,0,0,0,0
CCCC(=O)Nc1nc2c(ncn2[C@@H]2O[C@@H]3COP(=O)(O)O[C@H]3[C@H]2OC(=O)CCC)c(=O)[nH]1 [Dibutyryl-cGMP (sodium)] (10 µM),0,0,0,0,0,0,0,0,0,0,0,0,0,0,0,0,0,0,0,0
CC1(N)CCN(c2cnc3c(-c4cccc(Cl)c4Cl)[nH]nc3n2)CC1 (2.5 µM),0,0,0,0,0,0,0,0,0,0,0,0,0,0,0,0,0,0,0,0
CC(C)N(C)c1nc2cc(C(=O)O)ccc2nc1-c1ccc(F)cc1 (10 µM),0,0,0,0,0,0,0,0,0,0,0,0,0,0,0,0,0,0,0,0
Nc1ncc(-c2ccc(C(=O)N3CCNCC3)cc2)nc1-c1ccc(C(F)(F)F)cc1 (10 µM),0,0,0,0,0,0,0,0,0,0,0,0,0,0,0,0,0,0,0,0
Fc1c(Br)cccc1Nc1ncnc2cc3c(cc12)OCCO3 (2.5 µM),0,1,0,0,1,0,0,0,0,0,0,0,0,0,0,0,0,1,1,0
Cc1ccc(-c2nn(C(C)(C)CNC(=O)c3ccncc3)c3ncnc(N)c23)cc1 (2.5 µM),0,0,0,0,0,0,0,0,0,0,0,0,0,0,0,0,0,0,0,0
Nc1nc2cc(-c3ccc4ncc(C(=O)N5CCOCC5)n4c3)ccc2o1 [Serabelisib] (10 µM),0,0,0,0,0,0,0,0,0,0,0,0,0,0,0,0,0,0,0,0

# Part of the list above, showing only number of time points (DYRK1B):
Compound	number of time points (DYRK1B)
O=c1nc(N2CCOCC2)oc2c(-c3cccc4c3sc3ccccc34)cccc12 (10 µM)	0
CCOC(=O)c1c2c3c(cccc3[nH]c1=O)C(=O)c1ccccc1-2 (10 µM)	0
